# The other results are listed elsewhere or left out. Shown are side measurements of this screen, not its main read-out; they come without a call. The list favours compounds with an active or inconclusive main result. Words in brackets tell the shape of the fitted curve; partial curves, single points and poor fits give uncertain potencies.
# Assay: qHTS Assay to Find Inhibitors of Chronic Active B-Cell Receptor Signaling
# Conditions: ABC-DLBCL IkBa-CBG/CBR reporter, luminescence ratio (green luciferase fused to IkBa over red control in TMD8 lymphoma cells), 4 h
# How it was run: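 TMD8 human ABC-DLBCL cells with doxycycline-inducible IκBα–green luciferase fusion and unfused red luciferase, in 0.5% FBS medium; compounds up to 46 uM, 4 h at 37C. Green/red luminescence ratio, filter-overlap corrected, fitted to concentration-response curves.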
# [1] = measured here: CBR red luminescence, cell number
# [2] = measured here: IkBa-CBG green luminescence
Structure (SMILES),AC50 [1],AC50 [2]
CCOc1ccc(CN2CCNC(=O)C2CC(=O)NCCN2CCOC2=O)cc1 (stereo unspecified),"35.5 µM [falling, partial curve, poor fit]",–
CC(C)CCN(C(=O)c1csnn1)C(C(=O)NC1CCCC1)c1ccc(F)cc1 (stereo unspecified),"28.2 µM [falling, partial curve, poor fit]",–
O=C(NCC1CCCO1)C(c1ccncc1)N(Cc1cccs1)C(=O)Cn1nnc(-c2ccc(F)cc2)n1 (stereo unspecified),"6.31 µM [rising, partial curve, poor fit]",–
Cc1cc(NS(=O)(=O)c2ccc(C3CCCCC3)cc2)no1,"11.2 µM [rising, partial curve, poor fit]",–
Cc1cc(NC(=O)CSc2nnc(-c3ccoc3C)o2)no1,–,"35.5 µM [falling, single point]"
CCC(=O)NC(c1ccc([N+](=O)[O-])cc1)c1c(O)ccc2ccccc12 (stereo unspecified),"13 µM [falling, partial curve, poor fit]",–
COc1cc2cc(C(=O)N/N=C/c3ccc(F)cc3)[nH]c2cc1OC,"20 µM [falling, single point]",–
COc1ccccc1N(O)C1CC(=O)N(c2ccc(Br)cc2)C1=O (stereo unspecified),"1.16 µM [falling, full curve]",–
O=[N+]([O-])c1cccc(-c2ccc(/C=N/NC(=S)Nc3ccccc3)o2)c1,"2.82 µM [rising, partial curve, poor fit]",–
Cc1cc(=O)oc2cc(OCC(=O)Nc3nnc(C(C)C)s3)ccc12,"1.84 µM [rising, partial curve, poor fit]",–
O=C1CCn2nc(-c3ccc(Cl)cc3)cc2N1,"6.51 µM [rising, single point]",–
O=C(Cc1cccs1)Nc1nc(-c2ccc(F)c(F)c2)cs1,"14.1 µM [falling, single point]",–
CN(C)c1ccc(/C(=N\O)c2ccccc2)cc1,"29.1 µM [falling, single point]",–
COCCCN=Cc1c(-c2ccccc2)[nH]n(-c2nc3ccccc3s2)c1=O,"1.26 µM [rising, partial curve]",–
CC(C)(C)C(=O)Cn1ncc(Cl)c(Cl)c1=O,"25.1 µM [falling, single point]","6.31 µM [rising, partial curve, poor fit]"
C[C@H]1CN([C@@H](C)CO)C(=O)c2cccc(NC(=O)Nc3ccc(C(F)(F)F)cc3)c2O[C@@H]1CN(C)S(=O)(=O)c1ccccc1,"18.4 µM [falling, single point]",–
CC(C)c1cc(NCCOCCO)n2c(nc3ccccc32)c1C#N,"3.16 µM [falling, single point]",–
CCOC(=O)C1CCN(c2c(-c3ccccc3)c3cc(Cl)ccc3[nH]c2=O)CC1,"16.4 µM [falling, partial curve, poor fit]",–
COc1ccc2c(Cl)c(-c3nnc4n3CCCCC4)sc2c1,"7.08 µM [falling, partial curve, poor fit]",–
CCOC(=O)C1=C(N)OC2=C(C(=O)CCC2)C1c1ccccc1OCC (stereo unspecified),"17.8 µM [rising, partial curve, poor fit]",–
FC(F)(F)c1cnc(N2CCSCC2)c(Cl)c1,"0.0891 µM [rising, full curve, poor fit]",–
N#Cc1cc(Sc2ccccn2)c([N+](=O)[O-])cc1C#N,"20 µM [falling, single point]",–

Structure (SMILES),AC50 [1],AC50 [2]
COC(=O)CSc1ccc2nnc(-c3ccc(F)cc3)n2n1,"35.5 µM [falling, single point]",–
Cc1ccc([N+](=O)[O-])cc1S(=O)(=O)N1CCCN(C)CC1,"5.01 µM [rising, full curve, poor fit]",–
O=C(c1ccc(Cl)cc1[N+](=O)[O-])N(Cc1ccccc1)Cc1ccccc1,"20.6 µM [falling, partial curve, poor fit]",–
Cc1noc(C(=O)NC2CCCCC2)c1Cl,"28.2 µM [falling, single point]",–
COC(=O)c1ccc(CNC(=O)c2ccc(NS(=O)(=O)c3ccc4[nH]c(=O)[nH]c4c3)cc2)cc1,"29.1 µM [rising, partial curve, poor fit]",–
Cc1nc2nc[nH]n2c(=O)c1NC(=O)CC12CC3CC(CC(C3)C1)C2,"29.1 µM [falling, single point]",–
COc1ccc(S(=O)(=O)N2CCCC2CNC(=O)C(=O)NCc2ccco2)cc1 (stereo unspecified),"6.51 µM [rising, single point]",–
CCN(CC)c1ccc(/C=N/NC(=O)c2ccco2)c(O)c1,"11.2 µM [falling, partial curve, poor fit]",–
CCOc1ccc(CCNC(=O)CCC(=O)N2CCOc3ccccc32)cc1OCC,"5.62 µM [falling, full curve]",–
COc1ccc2c(c1)CC/C(=C\c1ccc(OC)c(Cn3nc(C)cc3C)c1)C2=O,"29.1 µM [falling, single point]",–
Cc1cccc(C(=O)n2c(=S)nc3ccccn32)c1,"3.26 µM [falling, full curve]",–
CCOC(=O)C1CCN(C(=O)c2cc(COc3ccc(F)cc3F)on2)CC1,"28.2 µM [falling, partial curve, poor fit]",–
Nc1ccccc1SC/C=C/CSc1ccccc1N,"0.501 µM [rising, full curve, poor fit]",–
Cc1cccc(-n2ncc3c(NCCCn4ccnc4)ncnc32)c1,–,"3.26 µM [rising, full curve, poor fit]"
COc1ccc(O)c(/C=N/Nc2nc3ccccc3[nH]2)c1,"35.5 µM [falling, single point]",–
COc1ccccc1NC(CC(=O)c1ccccc1)C(=O)OCC(=O)c1ccc(C)c(C)c1 (stereo unspecified),"9.2 µM [falling, partial curve]",–
O=C(Nc1ccc(N2CCN(C(=O)c3ccccc3)CC2)c(Cl)c1)c1ccco1,"25.9 µM [falling, single point]",–
COc1ccc(Cn2c(O)c(/C=N/NC(=O)c3cccnc3)c3ccccc3c2=O)cc1,"8.91 µM [falling, partial curve]",–
Nc1nc2ccccc2n1/N=C/c1ccc(-c2ccccc2)o1,"31.6 µM [falling, single point]",–
COc1ccc(C)cc1NC(=O)NCc1ccc(F)cc1,"15.8 µM [rising, single point]",–
CC(C)C[C@@H](C)C(=O)N(Cc1ccccc1)c1ccccc1,"0.0651 µM [rising, full curve, poor fit]",–
O=C(O)c1ccc2c(=O)[nH]c(CCl)nc2c1,"17.8 µM [falling, single point]",–

Structure (SMILES),AC50 [1],AC50 [2]
CCCCn1nc(NC(=O)c2cccs2)c2cc3cc(OC)ccc3nc21,"29.1 µM [falling, single point]",–
COc1ccccc1CC(=O)Nc1cccc(C(=O)Nc2nccs2)c1,"6.31 µM [falling, partial curve]",–
Cn1c(N)c(C(=O)NCc2ccccc2)sc1=S,"7.31 µM [rising, partial curve, poor fit]",–
Cc1ccc(S(=O)(=O)N2CCN(Cc3nc4ccccc4[nH]3)CC2)cc1C,"0.411 µM [rising, full curve, poor fit]",–
O=C1C([N+](=O)[O-])=C(O)c2cccc3cccc1c23,"20 µM [falling, single point]",–
COc1ccc(/C=C/CN2CCCC(CO)(Cc3cccc(Cl)c3)C2)cc1 (stereo unspecified),"0.112 µM [rising, full curve, poor fit]",–
N/C(=N\OC(=O)/C=C/c1ccccc1Cl)c1cccnc1,"0.447 µM [rising, full curve, poor fit]",–
COc1ccc(-c2cc(C(F)(F)F)n3nc(C(=O)N4CCCCC4)cc3n2)cc1OC,"5.62 µM [rising, single point]",–
O=C1Nc2c(c(=O)[nH]c(=O)n2-c2ccccc2)C(C(F)(F)F)(C(F)(F)F)N1,"32.6 µM [falling, single point]",–
Cc1cccnc1NC(=O)Nc1cccs1,"0.82 µM [rising, full curve, poor fit]",–
COc1ccc(CCc2cc(OC)cc(=O)o2)cc1,"35.5 µM [rising, single point]",–
O=C(N/N=C1\CCCc2oc(C(=O)O)cc21)c1ccccc1,"7.08 µM [falling, partial curve, poor fit]",–
O=C(O)c1cc(-c2ccc3c(c2)OCO3)nc2ccccc12,"2 µM [falling, full curve]",–
O=S(=O)(c1ccc(OCC2CO2)cc1)c1ccc(OCC2CO2)cc1 (stereo unspecified),–,"12.6 µM [falling, partial curve, poor fit]"
Nc1nc(Nc2ccccc2)nc2ccccc12,"17.8 µM [falling, single point]",–
O=C(c1ccccc1F)N1CCN(Cc2ccccc2F)CC1,"0.116 µM [falling, full curve, poor fit]",–
Cc1ccc2cc(CN(CCN3CCOCC3)C(=O)NCc3ccccc3)c(=O)[nH]c2c1C,"2.82 µM [rising, full curve, poor fit]",–
O=c1c2ccccc2nnn1Cc1nnc(-c2ccccc2Br)o1,"11.2 µM [falling, partial curve]",–
CCCCN(CCCC)C(=O)CSc1nnc(-c2cc(OC)c(OC)c(OC)c2)o1,"32.6 µM [rising, single point]",–
Cn1nc(C(F)(F)F)cc1C(=O)O,"2.82 µM [falling, partial curve]",–
CCOC(=O)c1c(CSc2ccccc2)oc2cc(Br)c(O)c(CN(C)C)c12,"35.5 µM [falling, single point]",–

# 3 entries out of the list, arranged by formula weight, ascending:
Structure (SMILES),AC50 [1],AC50 [2]
Cn1c(N)c(C(=O)NCc2ccccc2)sc1=S,"7.31 µM [rising, partial curve, poor fit]",–
CCCCn1nc(NC(=O)c2cccs2)c2cc3cc(OC)ccc3nc21,"29.1 µM [falling, single point]",–
COc1ccc(/C=C/CN2CCCC(CO)(Cc3cccc(Cl)c3)C2)cc1 (stereo unspecified),"0.112 µM [rising, full curve, poor fit]",–

# — PubChem BioAssay AID493014 (National Center for Advancing Translational Sciences (NCATS), 2011)
